Source: patent US20240391889A1, “ANTIMICROBIAL COMPOUNDS AND THE METHODS OF USE” (priority 2021, published 2024)
At least one peptide structure holds a part that was inferred or is arguable (an end, a ring closure or a residue). Numbered stars: 1 amine (or outer) side, 2 acyl side, 3 side chain; on linkers, the order of the positions; unused ones are H or OH. Square brackets hold non-standard residues; d marks the D form. Peptide text beside a SMILES is read from it. * marks the point of attachment. N(1S-cyclohexylethyl)Gly = C[C@H](NCC(=O)O)C1CCCCC1; N(3-imidazol-1-ylpropyl)Gly = O=C(O)CNCCCn1ccnc1; Gly(Nα-4-Cl-benzyl) = O=C(O)CNCc1ccc(Cl)cc1; N(4-Br-benzyl)Gly = O=C(O)CNCc1ccc(Br)cc1; N(2-thienylmethyl)Gly = O=C(O)CNCc1cccs1; N(tridecyl)Gly = CCCCCCCCCCCCCNCC(=O)O; N(4-F-Bzl)Gly = O=C(O)CNCc1ccc(F)cc1; X1 = CC(c1ccccc1)N(CC(=O)[*:2])[*:1]; Gly(N-2-aminoethyl) = NCCNCC(=O)O; Myristoyl = CCCCCCCCCCCCCC(=O)*; NFurfurylGly = O=C(O)CNCc1ccco1; Gly(N(CH2)3NH2) = NCCCNCC(=O)O; Gly(N-cHex) = O=C(O)CNC1CCCCC1; Nphe = O=C(O)CNCc1ccccc1; NPrGly = CCCNCC(=O)O; Nlys = NCCCCNCC(=O)O

What was measured:
C. albicans = assay type: cell-based, Candida albicans; conditions: for antifungal activity against C. albicans compared to RMG9-11: Round 1, in words
From the text: This screening led to the discovery of RMG9-11 (FIG. 2C). The minimum inhibitory concentration (MIC) of resynthesized RMG9-11 was initially determined against C. albicans, C. neoformans, and the ESKAPE bacteria via CSLI guidelines (CLSI. Methods for Dilution Antimicrobial Susceptibility Tests for Bacteria That Grow Aerobically, 11th Edition. Clinical and Laboratory Standards Institute (2018); CLSI. Reference method for broth dilution antifungal susceptibility testing of yeasts; approved standard-third edition; CLSI document M27-A3. Clinical and Laboratory Standards Institute (2008)). […] C. albicans clinical isolates include a reference strain (M1), fluconazole susceptible strains (M4 and M6), and fluconazole resistant strains (M2, M3, M5, and M7). ATCC 64124 is multidrug resistant C. albicans strain that is resistant to amphotericin B, fluconazole, caspofungin, and flucytosine. All MICs were performed under CSLI guidelines in triplicate on at least three different days.
The minimum inhibitory concentration (MIC) of peptoids against fungal pathogens C. albicans and C. neoformans was determined following CLSI guidelines (Reference method for broth dilution antifungal susceptibility testing of yeasts; approved standard-third edition; CLSI document M27-A3.” CLSI. 2008.). Colonies were transferred from a streaked YPD plate to 0.85% saline to reach an OD530 between 0.18 and 0.25. This inoculant was diluted 1:100 into RPMI-MOPS and then further diluted 1:20 into RPMI-MOPS. 198 μL of inoculant was seeded into each well of a 96 well black-walled plate. 2-fold serial dilutions of 100× peptoid solutions were prepared in water and 2 μL of peptoid were added to each well in triplicate. […] MIC was defined as the lowest concentration of compound preventing fungal growth. This assay was repeated 3 times on separate days with each compound.

[1] = Percent acetonitrile at time of elution from RP-HPLC (hydrophobicity); assay type: physicochemical
Description: Round 1 of the iterative SAR explored two miscellaneous derivatives along with derivatives that explored substitutions in position 3 (R^2; FIG. 6). Structures were confirmed by ESI-MS and hydrophobicity was determined by the percent acetonitrile at time of elution during RP-HPLC purification and using MarvinSketch to calculate the distribution coefficient at pH 7.4 (Table 5). Only one derivative of position 1 (group T of Formula 1) was explored, substituting a 14-carbon fatty acid (myristic acid) tail in place of the tridecyl tail (911-M1). This was tested because this fatty acid was previously shown to improve activity with C. albicans while reducing toxicity (Green R M, Bicker R. L. Evaluation of peptoid mimics of short, lipophilic peptide antimicrobials. Int J Antimicrob Agents. 2020; 56(2):106048. doi:10.1016/j.ijantimicag.2020.106048). The second miscellaneous derivative tested substituting the propyl group (Nnva) in position 2 (R^1) with a cationic group in an effort to reduce toxicity without effecting antifungal activity (911-M2). Substitutions in position 3 (R^2) included a benzyl group (Nphe; 911-M3), a para-fluorobenzyl group (Npfb; 911-M4), a para-chlorobenzyl group (Npcb; 911-M5), a para-bromobenzyl group (Npbb; 911-M6), a furfuryl group (Nfur; 911-M7), a thiophene group (Ntma; 911-M8), a cyclohexyl group (Ncha; 911-M9), a cyclohexylmethyl group (Nchexm; 911-M10), and a 5-cyclohexylethyl group (NchexmS; 911-M11).

| SMILES | antifungal activity against C. albicans compared to RMG9-11 (C. albicans) | % ACN [1] [%] | antifungal activity compared to 911-M1 (C. albicans; Round 2, in words) |
| --- | --- | --- | --- |
| CCCCCCCCCCCCCNCC(=O)N(CCC)CC(=O)N(CC(=O)N(CCCCN)CC(=O)N(CC(=O)N(CC(=O)N(CCCN)CC(N)=O)Cc1ccccc1)Cc1ccco1)[C@@H](C)C1CCCCC1 [Compound 911-M11] (H-[N(tridecyl)Gly][NPrGly][N(1S-cyclohexylethyl)Gly][Nlys][NFurfurylGly][Nphe][Gly(N(CH2)3NH2)]-NH2) | modestly improved antifungal activity | 73 |  |
| CCCCCCCCCCCCCNCC(=O)N(CCC)CC(=O)N(CC(=O)N(CCCCN)CC(=O)N(CC(=O)N(CC(=O)N(CCCN)CC(N)=O)Cc1ccccc1)Cc1ccco1)Cc1ccco1 [Compound 911-M7] (H-[N(tridecyl)Gly][NPrGly][NFurfurylGly][Nlys][NFurfurylGly][Nphe][Gly(N(CH2)3NH2)]-NH2) |  | 70.3 |  |
| CCCCCCCCCCCCCNCC(=O)N(CCC)CC(=O)N(CC(=O)N(CCCCN)CC(=O)N(CC(=O)N(CC(=O)N(CCCN)CC(N)=O)Cc1ccccc1)Cc1ccco1)Cc1ccc(Cl)cc1 [Compound 911-M5] (H-[N(tridecyl)Gly][NPrGly][Gly(Nα-4-Cl-benzyl)][Nlys][NFurfurylGly][Nphe][Gly(N(CH2)3NH2)]-NH2) |  | 71.5 |  |
| CCCCCCCCCCCCCNCC(=O)N(CCC)CC(=O)N(CC(=O)N(CCCCN)CC(=O)N(CC(=O)N(CC(=O)N(CCCN)CC(N)=O)Cc1ccccc1)Cc1ccco1)C1CCCCC1 [Compound 911-M9] (H-[N(tridecyl)Gly][NPrGly][Gly(N-cHex)][Nlys][NFurfurylGly][Nphe][Gly(N(CH2)3NH2)]-NH2) |  | 71.2 |  |
| CCCCCCCCCCCCCNCC(=O)N(CCC)CC(=O)N(CC(=O)N(CCCCN)CC(=O)N(CC(=O)N(CC(=O)N(CCCN)CC(N)=O)Cc1ccccc1)Cc1ccco1)Cc1cccs1 [Compound 911-M8] (H-[N(tridecyl)Gly][NPrGly][N(2-thienylmethyl)Gly][Nlys][NFurfurylGly][Nphe][Gly(N(CH2)3NH2)]-NH2) |  | 70.8 |  |
| CCCCCCCCCCCCCNCC(=O)N(CCC)CC(=O)N(CC(=O)N(CCCCN)CC(=O)N(CC(=O)N(CC(=O)N(CCCN)CC(N)=O)Cc1ccccc1)Cc1ccco1)Cc1ccc(Br)cc1 [Compound 911-M6] (H-[N(tridecyl)Gly][NPrGly][N(4-Br-benzyl)Gly][Nlys][NFurfurylGly][Nphe][Gly(N(CH2)3NH2)]-NH2) |  | 71.7 |  |
| CCCCCCCCCCCCCNCC(=O)N(CCC)CC(=O)N(CC(=O)N(CCCCN)CC(=O)N(CC(=O)N(CC(=O)N(CCCN)CC(N)=O)Cc1ccccc1)Cc1ccco1)Cc1ccccc1 [Compound 911-M3] (H-[N(tridecyl)Gly][NPrGly][Nphe][Nlys][NFurfurylGly][Nphe][Gly(N(CH2)3NH2)]-NH2) |  | 71.1 |  |
| CCCCCCCCCCCCCC(=O)NCC(=O)N(CCC)CC(=O)N(CC(=O)N(CCCCN)CC(=O)N(CC(=O)N(CC(=O)N(CCCN)CC(N)=O)Cc1ccccc1)Cc1ccco1)C(C)c1ccccc1 (centres unmarked) [Compound 911-M1] (Myristoyl-G[NPrGly][X1][Nlys][NFurfurylGly][Nphe][Gly(N(CH2)3NH2)]-NH2) | modestly improved antifungal activity | 74 |  |
| CCCCCCCCCCCCCC(=O)NCC(=O)N(CCC)CC(=O)N(CC(=O)N(CCCCN)CC(=O)N(CC(=O)N(CCCn1ccnc1)CC(=O)N(CCCN)CC(N)=O)Cc1ccco1)C(C)c1ccccc1 (centres unmarked) [Compound 911-M14] (Myristoyl-G[NPrGly][X1][Nlys][NFurfurylGly][N(3-imidazol-1-ylpropyl)Gly][Gly(N(CH2)3NH2)]-NH2) |  |  | significantly diminished activity |
| CCCCCCCCCCCCCNCC(=O)N(CCN)CC(=O)N(CC(=O)N(CCCCN)CC(=O)N(CC(=O)N(CC(=O)N(CCCN)CC(N)=O)Cc1ccccc1)Cc1ccco1)C(C)c1ccccc1 (centres unmarked) [Compound 911-M2] (H-[N(tridecyl)Gly][Gly(N-2-aminoethyl)][X1][Nlys][NFurfurylGly][Nphe][Gly(N(CH2)3NH2)]-NH2) | reduced antifungal activity | 68.3 |  |
| CCCCCCCCCCCCCNCC(=O)N(CCC)CC(=O)N(CC(=O)N(CCCCN)CC(=O)N(CC(=O)N(CC(=O)N(CCCN)CC(N)=O)Cc1ccccc1)Cc1ccco1)Cc1ccc(F)cc1 [Compound 911-M4] (H-[N(tridecyl)Gly][NPrGly][N(4-F-Bzl)Gly][Nlys][NFurfurylGly][Nphe][Gly(N(CH2)3NH2)]-NH2) |  | 71.3 |  |
